Results are given in words; binding and its absence hold for the method and conditions named. In cells and extracts the contact can be indirect. Some binding calls cover weakened binding; strength is not graded here.
Legend:
[1] = target: Lysine demethylase 6A (human (endogenous in HCT116)) (UniProt O15550); assay: co-IP
[2] = target: NF-KB P65 (human (endogenous in human CRC cells; cell line of the co-IP not named)) (UniProt Q04206); assay: co-IP

Chains of the proteins cited; added tags and fusions are not shown.
UniProt O15550: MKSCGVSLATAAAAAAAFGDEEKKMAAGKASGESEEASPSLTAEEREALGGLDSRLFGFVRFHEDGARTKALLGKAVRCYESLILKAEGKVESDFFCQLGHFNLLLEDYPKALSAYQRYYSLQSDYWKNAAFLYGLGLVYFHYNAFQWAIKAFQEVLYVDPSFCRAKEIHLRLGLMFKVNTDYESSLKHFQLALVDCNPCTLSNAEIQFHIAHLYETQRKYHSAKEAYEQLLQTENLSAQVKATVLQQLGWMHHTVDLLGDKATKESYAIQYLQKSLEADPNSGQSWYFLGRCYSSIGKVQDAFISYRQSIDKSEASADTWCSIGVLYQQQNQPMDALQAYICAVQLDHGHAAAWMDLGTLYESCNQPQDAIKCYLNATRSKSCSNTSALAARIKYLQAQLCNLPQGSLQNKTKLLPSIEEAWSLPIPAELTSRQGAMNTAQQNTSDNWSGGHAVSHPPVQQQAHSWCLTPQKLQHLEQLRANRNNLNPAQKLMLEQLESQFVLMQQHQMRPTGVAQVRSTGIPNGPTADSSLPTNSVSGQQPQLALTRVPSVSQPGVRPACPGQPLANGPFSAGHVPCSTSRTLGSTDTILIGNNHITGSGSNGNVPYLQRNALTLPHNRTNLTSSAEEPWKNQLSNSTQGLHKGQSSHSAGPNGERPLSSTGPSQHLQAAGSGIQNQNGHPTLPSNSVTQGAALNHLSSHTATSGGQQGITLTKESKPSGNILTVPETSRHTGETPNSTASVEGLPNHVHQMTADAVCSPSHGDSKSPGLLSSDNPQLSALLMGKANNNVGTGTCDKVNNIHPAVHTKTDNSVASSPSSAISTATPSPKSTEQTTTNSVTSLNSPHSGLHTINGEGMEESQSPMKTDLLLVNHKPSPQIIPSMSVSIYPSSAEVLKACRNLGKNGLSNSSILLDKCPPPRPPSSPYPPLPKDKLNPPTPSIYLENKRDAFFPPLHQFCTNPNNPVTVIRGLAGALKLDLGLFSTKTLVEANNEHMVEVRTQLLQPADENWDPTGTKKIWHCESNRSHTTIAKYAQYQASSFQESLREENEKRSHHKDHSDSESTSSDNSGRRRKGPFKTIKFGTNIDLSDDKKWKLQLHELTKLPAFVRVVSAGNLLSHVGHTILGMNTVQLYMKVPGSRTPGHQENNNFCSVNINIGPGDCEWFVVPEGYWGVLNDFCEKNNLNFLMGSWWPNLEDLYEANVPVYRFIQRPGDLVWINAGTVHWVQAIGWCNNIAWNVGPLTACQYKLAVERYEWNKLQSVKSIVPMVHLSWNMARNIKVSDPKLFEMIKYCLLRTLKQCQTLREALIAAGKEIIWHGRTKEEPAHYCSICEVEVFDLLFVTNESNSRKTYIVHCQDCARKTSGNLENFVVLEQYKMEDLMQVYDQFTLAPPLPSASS
UniProt Q04206: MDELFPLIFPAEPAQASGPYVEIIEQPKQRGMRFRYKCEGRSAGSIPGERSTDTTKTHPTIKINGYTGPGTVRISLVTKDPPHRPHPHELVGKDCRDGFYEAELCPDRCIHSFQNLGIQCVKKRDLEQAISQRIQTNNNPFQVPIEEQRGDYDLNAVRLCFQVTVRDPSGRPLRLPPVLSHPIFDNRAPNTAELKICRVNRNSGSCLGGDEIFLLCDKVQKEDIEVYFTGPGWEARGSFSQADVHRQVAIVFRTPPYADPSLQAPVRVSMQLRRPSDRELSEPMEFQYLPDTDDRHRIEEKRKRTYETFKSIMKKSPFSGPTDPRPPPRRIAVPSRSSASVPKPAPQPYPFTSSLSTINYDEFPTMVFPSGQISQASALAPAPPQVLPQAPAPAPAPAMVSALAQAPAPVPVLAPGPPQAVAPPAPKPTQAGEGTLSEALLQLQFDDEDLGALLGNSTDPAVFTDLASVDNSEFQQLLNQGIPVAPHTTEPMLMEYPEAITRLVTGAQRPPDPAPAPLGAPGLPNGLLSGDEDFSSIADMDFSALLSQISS
UniProt P12004: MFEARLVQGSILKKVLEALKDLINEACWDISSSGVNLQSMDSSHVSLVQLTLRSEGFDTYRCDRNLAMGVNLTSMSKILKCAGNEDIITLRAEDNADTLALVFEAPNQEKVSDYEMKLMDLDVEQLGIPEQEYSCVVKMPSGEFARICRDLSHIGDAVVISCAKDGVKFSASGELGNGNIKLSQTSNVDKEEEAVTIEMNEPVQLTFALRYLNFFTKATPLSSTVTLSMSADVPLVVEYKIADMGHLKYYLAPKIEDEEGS
UniProt Q15022: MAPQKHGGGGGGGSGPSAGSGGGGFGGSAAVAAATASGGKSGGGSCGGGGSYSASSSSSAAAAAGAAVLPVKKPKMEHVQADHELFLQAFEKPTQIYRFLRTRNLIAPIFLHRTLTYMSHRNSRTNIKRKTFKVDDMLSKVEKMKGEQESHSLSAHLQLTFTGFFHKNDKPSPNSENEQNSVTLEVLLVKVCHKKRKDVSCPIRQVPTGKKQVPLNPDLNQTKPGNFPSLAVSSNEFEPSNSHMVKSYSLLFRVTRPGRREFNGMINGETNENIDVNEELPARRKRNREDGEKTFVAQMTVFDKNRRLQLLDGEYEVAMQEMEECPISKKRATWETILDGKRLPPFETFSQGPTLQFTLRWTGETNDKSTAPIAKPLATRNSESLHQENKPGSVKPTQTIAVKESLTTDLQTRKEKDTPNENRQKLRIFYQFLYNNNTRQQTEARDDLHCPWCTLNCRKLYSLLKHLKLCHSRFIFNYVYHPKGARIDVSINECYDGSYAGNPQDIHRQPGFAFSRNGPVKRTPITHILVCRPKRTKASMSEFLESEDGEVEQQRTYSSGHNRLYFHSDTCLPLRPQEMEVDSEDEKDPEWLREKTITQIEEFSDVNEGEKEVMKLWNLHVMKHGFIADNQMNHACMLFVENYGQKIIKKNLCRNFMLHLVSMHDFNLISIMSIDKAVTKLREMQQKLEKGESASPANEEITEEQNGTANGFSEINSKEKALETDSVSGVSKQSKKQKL

binding [1] | binding [2] | Substance
binds | – | Proliferating cell nuclear antigen (from UniProt P12004 1-261)
– | binds | SUZ12 (from UniProt Q15022 1-739)

Reference: paper doi:10.1101/2025.11.04.686665
